The test concerns the target CD47 on SCC-13 and HepG2 tumor cells (human (endogenous in SCC-13 and HepG2)) (UniProt Q08722). Briefly: flow cytometry on cells; SCC-13 and HepG2 cells (3 x 10^6 cells/ml, 100 μl) incubated with 1 μM FITC-RS17 for 1 h at 37℃, 5% CO2, in dark; washed with PBS; only the binder purified.

By UniProt entry, the sequences of proteins in these tests, tags left out. Residues count along the entry.
UniProt Q08722, residues 19-323: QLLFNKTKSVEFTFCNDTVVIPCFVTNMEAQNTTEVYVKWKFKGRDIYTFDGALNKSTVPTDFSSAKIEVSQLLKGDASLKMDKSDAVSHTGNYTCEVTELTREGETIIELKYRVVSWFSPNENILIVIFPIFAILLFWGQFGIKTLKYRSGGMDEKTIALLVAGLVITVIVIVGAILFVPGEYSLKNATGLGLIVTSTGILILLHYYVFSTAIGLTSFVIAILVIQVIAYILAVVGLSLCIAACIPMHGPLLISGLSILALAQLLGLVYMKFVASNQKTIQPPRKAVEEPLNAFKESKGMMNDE

Binding data for one molecule are collected here from PMC7957188, “An antitumor peptide RS17‐targeted CD47, design, synthesis, and antitumor activity” (Cancer Medicine, 2021).

Results are given in words; binding and its absence hold for the method and conditions named. Some results given as binding are weak or reduced against the parent protein; the word gives no strength.

Turning to RRYKQDGGWSHWSPWSS (FITC coupled through the Acp active group to RS17) [FITC-RS17 peptide], the binding result is recorded as “binds”.
